Assay results taken from publication PMC12306156.
These are yes or no findings as the source states them, for the method shown. In cells and extracts the contact can be indirect. Some entries that bind do so weakly or less than the wild type. For some assays here: Sequences can lack the tags named with a protein.

The chains behind the UniProt entries cited, without tags or fusion partners.
UniProt P42224: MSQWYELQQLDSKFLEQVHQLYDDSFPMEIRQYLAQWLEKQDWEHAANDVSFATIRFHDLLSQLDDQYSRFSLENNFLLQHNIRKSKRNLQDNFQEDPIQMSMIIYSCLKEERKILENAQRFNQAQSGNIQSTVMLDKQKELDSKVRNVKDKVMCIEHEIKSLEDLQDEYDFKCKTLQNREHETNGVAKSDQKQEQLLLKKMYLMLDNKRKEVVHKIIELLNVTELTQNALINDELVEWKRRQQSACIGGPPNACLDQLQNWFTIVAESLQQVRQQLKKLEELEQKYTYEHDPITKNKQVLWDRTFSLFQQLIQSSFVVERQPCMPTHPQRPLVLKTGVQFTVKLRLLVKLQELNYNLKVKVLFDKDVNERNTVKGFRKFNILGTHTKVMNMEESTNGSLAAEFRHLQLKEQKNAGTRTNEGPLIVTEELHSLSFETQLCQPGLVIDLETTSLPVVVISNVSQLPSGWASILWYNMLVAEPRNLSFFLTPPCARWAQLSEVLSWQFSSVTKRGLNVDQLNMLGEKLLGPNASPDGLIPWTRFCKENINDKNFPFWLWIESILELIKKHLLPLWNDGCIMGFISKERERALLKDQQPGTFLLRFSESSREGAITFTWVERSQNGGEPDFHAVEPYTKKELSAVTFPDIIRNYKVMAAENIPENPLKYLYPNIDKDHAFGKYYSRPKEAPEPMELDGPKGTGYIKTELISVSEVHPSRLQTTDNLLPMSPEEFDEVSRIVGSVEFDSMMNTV

Key:
[1] = target: STAT1, His-tagged, from pcDNA3.1-STAT1-6His (UniProt P42224); assay: co-IP; exogenous co-IP; pcDNA3.1-G3BP2-2Flag and pcDNA3.1-STAT1-6His co-transfected into HEK293T cells for 24 h; lysate incubated with antibody (AE005 or AE003, ABclonal) and protein (A + G) agarose at 4°C for 4 h, washed with PBS, western blotting
[2] = target: STAT1 in CVB5-infected SH-SY5Y cells (human (endogenous in SH-SY5Y)) (UniProt P42224); assay: co-IP; SH-SY5Y cells transfected with siLINC2781-1 or siNC, infected with CVB5 (MOI = 1) 24 h post-transfection, harvested at 24 hpi; co-IP of G3BP2 and STAT1

Binder | binding [1] | binding [2]
GTPase-activating protein SH3 domain-binding protein 2 (G3BP2), Flag-tagged, from pcDNA3.1-G3BP2-2Flag (protein, UniProt Q9UN86 1-482) MVMEKPSPLLVGREFVRQYYTLLNKAPEYLHRFYGRNSSYVHGGVDASGKPQEAVYGQNDIHHKVLSLNFSECHTKIRHVDAHATLSDGVVVQVMGLLSNSGQPERKFMQTFVLAPEGSVPNKFYVHNDMFRYEDEVFGDSEPELDEESEDEVEEEQEERQPSPEPVQENANSGYYEAHPVTNGIEEPLEESSHEPEPEPESETKTEELKPQVEEKNLEELEEKSTTPPPAEPVSLPQEPPKAFSWASVTSKNLPPSGTVSSSGIPPHVKAPVSQPRVEAKPEVQSQPPRVREQRPRERPGFPPRGPRPGRGDMEQNDSDNRRIIRYPDSHQLFVGNLPHDIDENELKEFFMSFGNVVELRINTKGVGGKLPNFGFVVFDDSEPVQRILIAKPIMFRGEVRLNVEEKKTRAARERETRGGGDDRRDIRRNDRGPGGPRGIVGGGMMRDRDGRGPPPRGGMAQKLGSGRGTGQMEGRFTGQRR | binds | 
G3BP2 in CVB5-infected SH-SY5Y cells (protein, UniProt Q9UN86 1-482) MVMEKPSPLLVGREFVRQYYTLLNKAPEYLHRFYGRNSSYVHGGVDASGKPQEAVYGQNDIHHKVLSLNFSECHTKIRHVDAHATLSDGVVVQVMGLLSNSGQPERKFMQTFVLAPEGSVPNKFYVHNDMFRYEDEVFGDSEPELDEESEDEVEEEQEERQPSPEPVQENANSGYYEAHPVTNGIEEPLEESSHEPEPEPESETKTEELKPQVEEKNLEELEEKSTTPPPAEPVSLPQEPPKAFSWASVTSKNLPPSGTVSSSGIPPHVKAPVSQPRVEAKPEVQSQPPRVREQRPRERPGFPPRGPRPGRGDMEQNDSDNRRIIRYPDSHQLFVGNLPHDIDENELKEFFMSFGNVVELRINTKGVGGKLPNFGFVVFDDSEPVQRILIAKPIMFRGEVRLNVEEKKTRAARERETRGGGDDRRDIRRNDRGPGGPRGIVGGGMMRDRDGRGPPPRGGMAQKLGSGRGTGQMEGRFTGQRR |  | binds
